In PMC7819943, “Rice protein-binding microarrays: a tool to detect cis-acting elements near promoter regions in rice” one finds binding signal data, which are given here for 42 sequences.

The list shows a part of the results.

The assay has as its target T1, OsSMF1 (Oryza sativa, UniProt Q6ZLB0 1-436).
T1 sequence: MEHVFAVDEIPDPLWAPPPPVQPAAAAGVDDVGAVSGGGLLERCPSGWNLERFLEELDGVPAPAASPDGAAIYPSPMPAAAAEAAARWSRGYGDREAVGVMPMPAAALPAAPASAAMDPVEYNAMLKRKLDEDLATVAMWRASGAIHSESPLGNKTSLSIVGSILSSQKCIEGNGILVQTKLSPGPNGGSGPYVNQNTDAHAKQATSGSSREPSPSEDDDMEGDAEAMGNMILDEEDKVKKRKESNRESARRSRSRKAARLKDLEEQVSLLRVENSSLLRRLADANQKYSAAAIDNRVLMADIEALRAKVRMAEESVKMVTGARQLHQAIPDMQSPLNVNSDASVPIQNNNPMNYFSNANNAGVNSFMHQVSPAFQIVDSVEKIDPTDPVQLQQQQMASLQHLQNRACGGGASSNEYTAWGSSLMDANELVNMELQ
The assay is described as follows: protein-binding microarray (RPBM); PBS, 2% BSA, 51.3 ng/ul salmon testes DNA, 50 uM zinc acetate, 200 nM TF, 25 C, 1 h; high values mean tight binding. To be noted: protein: recombinant; tags: N-terminal polyhistidine and DsRed monomer fusion (pET32a); chain copies: 2; label: CyDye5-dUTP incorporated in the synthesized complementary strand; 3' TTTTT single-stranded linker to array surface; dsDNA, one strand shown. The method in brief:
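Ni–NTA purification followed expression in E. coli BL21-CodonPlus of transcription factors fused N-terminally to a polyhistidine tag and DsRed. At 200 nM in PBS with 2% BSA, salmon testes DNA and 50 µM zinc acetate, the protein was incubated for 1 h at 25 °C with a custom Agilent array that had been primer-extended with Cy5-dUTP and blocked with 2% BSA. After washing, the array was read on an Axon 4000B scanner. The binding signal is per-feature fluorescence intensity in arbitrary units.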
For the sequence “CACACCCTAACTAGTGTGTGACGCGACTGGCACAGCCTTCCGGAGTCACCTAGTGCAG”, the binding signal was 4310 fluorescence intensity (a.u.).

For the sequence “CATACCAACTCCATCATCTGCTGTCACGTTTGGTCGACGCCGGAGTCACCTAGTGCAG”, the binding signal is 3540 fluorescence intensity (a.u.).

For the sequence “GGTTCCTAACTTCCCTCACTCGTTTTCCGCGCTCACACTTCGGAGTCACCTAGTGCAG”, the binding signal was 3590 fluorescence intensity (a.u.).

Consider “AAACCGGTTTGATGACTTGATGTCGTCGTTTCATTGGTCACGGAGTCACCTAGTGCAG”, for which the binding signal was 3660 fluorescence intensity (a.u.).

“TGAGCTGAGCTCTTCTCTAGCTCATCTTCTTGGTGGATCTCGGAGTCACCTAGTGCAG”: the binding signal is 3640 fluorescence intensity (a.u.).

In the case of “GGATGGTTTACACGTCGCTCCTCATTCCGGCTCCTCGCGTCGGAGTCACCTAGTGCAG”, the binding signal was 4160 fluorescence intensity (a.u.).

For the sequence “AAGGCTCGCGAATACGCGGCGTCCACGCATCGGAACTCGGCGGAGTCACCTAGTGCAG”, the binding signal was 3330 fluorescence intensity (a.u.).

As to “GTGTGTGTTGCGTGGTGGGGAGGAAGATCTCGAGCGGTTGCGGAGTCACCTAGTGCAG”, the binding signal is 3950 fluorescence intensity (a.u.).

Consider “AGGTTGATCTACTCTTGTCCAGTCATTTCTGCAGTTTGCCCGGAGTCACCTAGTGCAG”, for which the binding signal was 5890 fluorescence intensity (a.u.).

With “GCCGAACACCGACGCGGCGAGCGCAGCCACCACGTCCCCGCGGAGTCACCTAGTGCAG”, the binding signal is 3920 fluorescence intensity (a.u.).

As for “TGGTTGTGACATCACCTGTGTAGCCTATACACCGTTGCTGCGGAGTCACCTAGTGCAG”, the binding signal is 4790 fluorescence intensity (a.u.).

For the sequence “TTAAACTTAATATATTAACGTGTAATCTTTTACGCGTTCACGGAGTCACCTAGTGCAG”, the binding signal is 3800 fluorescence intensity (a.u.).

For the sequence “TCTCCGCCGCCGCCGCCGCCGCCGTCGCCGCCGCCTGCCTCGGAGTCACCTAGTGCAG”, the binding signal was 3310 fluorescence intensity (a.u.).

For the sequence “GAATATCCGCCAATCACTTTCCCCTCCCACGGCGGCGGCGCGGAGTCACCTAGTGCAG”, the binding signal is 3210 fluorescence intensity (a.u.).

For “ACACATTCCATATCCTTGGACTAATTCACGAGACGAATCTCGGAGTCACCTAGTGCAG”, the binding signal is 40900 fluorescence intensity (a.u.).

“AGGCATGAGGATGCAAAAGGATGACCGACTTGGTTGTCAGCGGAGTCACCTAGTGCAG”: the binding signal was 3720 fluorescence intensity (a.u.).

For the sequence “GGAAAGACCGATTGAGATAAGTCATTCGTGACGGACGCCTCGGAGTCACCTAGTGCAG”, the binding signal is 3420 fluorescence intensity (a.u.).

Regarding “GCCAGGCGACGCGACGAGTCAGCTCAGCTCGCGCCCGCGGCGGAGTCACCTAGTGCAG”, the binding signal is 3700 fluorescence intensity (a.u.).

As to “GCCAATTAACCAATCGGCGTCGTCAGGCCTCTCGCGTGTGCGGAGTCACCTAGTGCAG”, the binding signal is 3890 fluorescence intensity (a.u.).

In the case of “CGAAAACGATCCACGCTGTCACACGCTCGAAGACCCGGAACGGAGTCACCTAGTGCAG”, the binding signal is 3690 fluorescence intensity (a.u.).

Regarding “TCGGGTGACGCGTGTATATGCGCCACTATGTGGATGTGTTCGGAGTCACCTAGTGCAG”, the binding signal was 7400 fluorescence intensity (a.u.).

Regarding “CTTGCATGACATCGTGTCCCACCTCCCCGCCAAGGACTCGCGGAGTCACCTAGTGCAG”, the binding signal is 9190 fluorescence intensity (a.u.).

As for “GTCGGGAGGAGGTGAGAGAGGAGGAGATAAGGCTGTGGGGCGGAGTCACCTAGTGCAG”, the binding signal is 4090 fluorescence intensity (a.u.).

Turning to “CGTCTCAATAATCCGGACTCACTCACATATGCTGCCTTCGCGGAGTCACCTAGTGCAG”, the binding signal is 3910 fluorescence intensity (a.u.).

In the case of “ATATATTTAAGTACCAAGTGTCAAAATATGTGTGGTTTTCCGGAGTCACCTAGTGCAG”, the binding signal was 3620 fluorescence intensity (a.u.).

Consider “AGCCACCCCGCCGCCGGCGATCCCCGGCATCCTCGCCACCCGGAGTCACCTAGTGCAG”, for which the binding signal is 3780 fluorescence intensity (a.u.).

As to “TGGGTCCCATGCTGACTCGGCCGCCACGTCGGACAAAACCCGGAGTCACCTAGTGCAG”, the binding signal is 27300 fluorescence intensity (a.u.).

With “CTCTAATCCATTGATCAATCATCGACACCTCACGTTACAACGGAGTCACCTAGTGCAG”, the binding signal is 3880 fluorescence intensity (a.u.).

For the sequence “GTGCCCACACGTGGCTCGAATCCGAGAGGGACAGCGTCCTCGGAGTCACCTAGTGCAG”, the binding signal is 4110 fluorescence intensity (a.u.).

Regarding “AGACACCCAGTCACAGCTCATAGTATTTGCATCCCCACAGCGGAGTCACCTAGTGCAG”, the binding signal is 3800 fluorescence intensity (a.u.).

On to “GGCCCGCCTTCCAGCCTCAAACACCATGACACGTGTACCCCGGAGTCACCTAGTGCAG”, for which the binding signal is 24100 fluorescence intensity (a.u.).

On to “CCGGCAGATCAATCTCGGTCAGACTGACTTCCGTCGATTTCGGAGTCACCTAGTGCAG”, for which the binding signal was 3200 fluorescence intensity (a.u.).

Take “GTTCTTCTCCAACTCACCCTGTTTCTCTCACCAAATGCCCCGGAGTCACCTAGTGCAG”: the binding signal was 4320 fluorescence intensity (a.u.).

“ATGTAGATTTGATGCTGATGCACACGATTCCGACTAAGAGCGGAGTCACCTAGTGCAG”: the binding signal is 3590 fluorescence intensity (a.u.).

“CAGTCCTCCAAAATTTAATAACACCAAAATTCGAAATATTCGGAGTCACCTAGTGCAG”: the binding signal is 3430 fluorescence intensity (a.u.).

Take “AGTGAGAGGAGGTAGCTCTGCCACCGGAGCGGCTGCGGGGCGGAGTCACCTAGTGCAG”: the binding signal is 3390 fluorescence intensity (a.u.).

For the sequence “CTTTGTCTTAGTATGGTGACTGGTTGCAAATTGATTTGGTCGGAGTCACCTAGTGCAG”, the binding signal was 3410 fluorescence intensity (a.u.).

Turning to “GTTTCCCTTAATCCCCACGTGCGTGCGCGCCCGAGCGGGACGGAGTCACCTAGTGCAG”, the binding signal is 3430 fluorescence intensity (a.u.).

For “TTTCACTATGGTATATATAATGGTATAATGGTCATTTAATCGGAGTCACCTAGTGCAG”, the binding signal was 3340 fluorescence intensity (a.u.).

For the sequence “GCCGCGCCGTCCTGTGTGTGCGTGGCGCCAATGCATGCTACGGAGTCACCTAGTGCAG”, the binding signal was 3590 fluorescence intensity (a.u.).

Turning to “TCCTCCAGATGTTACAGTCTCCGAATTTCAGTGATGTCACCGGAGTCACCTAGTGCAG”, the binding signal was 11800 fluorescence intensity (a.u.).

As to “CGAACGAAATCGCCGACACGTGGATCTGCACGCTGAAGCTCGGAGTCACCTAGTGCAG”, the binding signal was 10700 fluorescence intensity (a.u.).
